Measured values reported in the supplement of paper PMC10338343.
± gives the standard deviation. The list shows a part of the results. The uncertainty is large for many entries.

system: EfPiwi piRISC loaded with L1MC piRNA (26 nt); test: pre-steady-state target cleavage rate (min^-1); guide: L1MC piRNA 5'p-UAACUAAAUACUAUGCAAGCUGUAGG; MIWI and MILI are mouse PIWI proteins and EfPiwi is from a freshwater sponge; tags in brackets are library labels; higher = faster piRNA-guided slicing of the target; conditions: auxiliary factor: none (no Gtsf1)
Outline: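 Reactions were run for 0–8 or 0–960 min at 33 °C in HEPES–potassium acetate buffer, combining 1 nM active affinity-purified piRISC with one synthetic guide, […] transcribed, DNA-blocked target RNA library and, in some cases, 500 nM GTSF1 partner protein. Sequencing of uncleaved targets followed, with normalisation to depth and to weakly complementary targets. Three trials were pooled, k3 was capped at 0.0001 min^-1, and the pre-steady-state cleavage rate was taken from a burst-and-steady-state fit.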

| Sequence | pre-steady-state target cleavage rate |
| --- | --- |
| UCCUCCUACAGCUUGCAUAGUAUAAAGUAA | 0.000384 ± 0.017 |
| UCCUGCUACAGCUUGCAUAGUAUUUACAAA | 0.000102 ± 0.061 |
| UCCUGGAUGUCGUUGCAUACUAUAUAGUUA | 0.000123 ± 0.08 |
| UCCUGGAUGUCGAACGUAUCUAUUCAGUUA | < 0.0001 |
| UCCUGCUACAGCUUGCAUAGAAUUUAGAAA | 0.000391 ± 0.0099 |
